Several values for one entry are separate records, joined by “and”; a condition that tells them apart may be missing. Equal entries are not always repeated. Strings that start with PEPTIDE1 are HELM notation: dots part the residues, brackets hold end groups and non-standard residues.
Test: general procedure: solution-phase peptide synthesis; active esters (OSu, OPCP, OPFP) with triethylamine in DMF

2-(2-(tert.-Butoxycarbonyl-aminooxy)-acetyl-L-tryptophyl-L-methionyl-L-aspartyl-L-phenylalanyl-aminooxy)-acetic acid
step yield (coupling step): 31%

2-(3-(tert.-Butoxycarbonyl-aminooxy)-propionyl-L-tryptophyl-L-methionyl-L-aspartyl-L-phenylalanyl-aminooxy)-acetic acid
step yield (coupling step): 34%

2-(L-Tryptophyl-L-methionyl-L-aspartyl-L-phenylalanyl-aminooxy)-acetic acid
step yield (late stage modification step): 71%

2-(N-(tert.-Butoxycarbonyl)-L-methionyl-L-aspartyl-L-phenylalanyl-aminooxy)acetic acid
step yield (coupling step, run 1): 69% and 35.7%

2-D-(tert.-Butoxycarbonyl-aminooxy)-propionyl-L-tryptophyl-L-norvalyl-L-aspartyl-L-phenylalanine-amide
step yield (coupling step): 43.4%

(Aminooxy)-acetyl-L-tryptophyl-L-methionyl-L-aspartyl-L-phenylalanine-amide
step yield (late stage modification step): 69%

(tert.-Butoxycarbonyl-aminooxy)-acetyl-L-tryptophyl-L-methionyl-L-aspartyl- L-phenylalanine-amide
step yield (coupling step, run 1): 91% and 64.8%

BOC-Trp(For)-L-Ade-Asp-Phe-NH2
step yield (coupling step): 87.5%

L-Tryptophyl-2-D-amino-decanoyl-L-aspartyl-L-phenylalanine-amide hydrochloride
step yield (late stage modification step): 91.4%

L-Tryptophyl-2-L-amino-decanoyl-L-aspartyl-L-phenyl-alanine-amide hydrochloride
step yield (late stage modification step): 99%

L-Tryptophyl-L-leucyl-L-aspartyl-L-phenylalanine-amide
step yield (late stage modification step): 83.1%

L-Tryptophyl-L-methionyl-L-aspartyl-L- phenylalanine-amide monohydrate
step yield (late stage modification step): 82.4%

L-Tryptophyl-L-norleucyl-L-aspartyl-L-phenylalanine-amide hydrochloride
step yield (late stage modification step): 69.7%

L-Tryptophyl-L-norvalyl-L-aspartyl-L-phenylalanine-amide hydrochloride
step yield (late stage modification step): 98.0%

N-(tert.-Butoxycarbonyl)-L-tryptophyl-L-leucyl-L-aspartyl-L-phenylalanine-amine
step yield (coupling step): 72.1%

N-(tert.-Butoxycarbonyl)-L-tryptophyl-L-leucyl-L-aspartyl-β-(tert.-butyl ester)-L-phenylalanine-amide
step yield (coupling step, run 1): 84.5%

N-(tert.-Butoxycarbonyl)-L-tryptophyl-L-methionyl-L-aspartyl-L-phenylalanine-amide
step yield (coupling step, run 1): 95% and 69%

N-tert.-Butoxycarbonyl-L-tryptophyl-2-D-amino-decano-yl-L-aspartyl-L-phenylalanine-amide
step yield (coupling step): 83.8%

N-tert.-Butoxycarbonyl-L-tryptophyl-L-norleucyl-L-aspartyl-L-phenylalanine- amide
step yield (coupling step): 89.7%

N-tert.-Butoxycarbonyl-L-tryptophyl-L-norvalyl-L-aspartyl-L-phenylalanine-amide
step yield (coupling step): 73.9%

PEPTIDE1{[Boc].[D-OAla].W.M.D.F.[OGly]}$$$$V2.0
step yield (coupling step): 25.6%
